PubChem BioAssay AID1259254, NCATS | 2017

Test: 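Finding genes that stop cells copying their DNA twice in one cycle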 (primary screen)
Cell system: human HCT116 colorectal cancer cells
Knock-down reagent: single siRNA against human genes
Time to read-out: 3 days
Detection: 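Imaged Hoechst DNA stain sorts each cell into a cycle phase by DNA amount; per plate, G2 fraction set to 0% for non-targeting and 100% for GMNN siRNA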
Reading the numbers: G2 robust z-score and G2 cells, % of GMNN control: higher = more G2 cells, more excess DNA replication; raw share of cells in G2: higher = larger share of cells with G2 DNA content
Hit rule: 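An siRNA counts as active if its G2 robust z-score lies at least 5 MADs above the screen median; here such calls match roughly 38% of GMNN control or more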
Shown is one part, drawn at random, of about 59,000 reagents tested. About 1,550 of all reagents (2.6%) count as active. 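G2 share is only a proxy for re-replication; each gene was hit by three separate siRNAs, and active genes were retested.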 The raw values are shown without normalisation. A number with no mark means an inactive call. Reagents against one gene are numbered here. Not given: the amount of reagent.

gene | reagent | G2 robust z-score | G2 cells, % of GMNN control | raw share of cells in G2 (%)
SOX1 | 1 | 0.608 | 7.25 | 6.36
SOX1 | 2 | -1.08 | -4.66 | 4.11
SOX1 | 3 | -0.334 | 0.621 | 4.76
CIAO2A | 1 | -0.122 | 2.11 | 4.81
CIAO2A | 2 | 0.491 | 6.42 | 5.36
CIAO2A | 3 | -0.105 | 2.23 | 3.08
NKAIN4 | 1 | 0.0465 | 3.29 | 5.42
NKAIN4 | 2 | 0.374 | 5.6 | 4.88
NKAIN4 | 3 | -0.841 | -2.95 | 1.51
OR5H2 | 1 | -0.349 | 0.511 | 4.8
OR5H2 | 2 | -0.787 | -2.57 | 3.46
OR5H2 | 3 | 5.03 (active) | 38.3 | 12.8
EEF1AKMT3 | 1 | 0.885 | 9.2 | 7.87
EEF1AKMT3 | 2 | 1.67 | 14.7 | 10.3
EEF1AKMT3 | 3 | -0.659 | -1.67 | 2.72
SLC17A4 | 1 | 0.563 | 6.93 | 7.82
SLC17A4 | 2 | 1.03 | 10.2 | 8.91
SLC17A4 | 3 | -0.0316 | 2.75 | 4.14

Next part, starting with the last 3 of the part before.
gene | reagent | G2 robust z-score | G2 cells, % of GMNN control | raw share of cells in G2 (%)
SLC17A4 | 1 | 0.563 | 6.93 | 7.82
SLC17A4 | 2 | 1.03 | 10.2 | 8.91
SLC17A4 | 3 | -0.0316 | 2.75 | 4.14
TRAF3IP2-AS1 | 1 | 1.16 | 11.1 | 6.38
TRAF3IP2-AS1 | 2 | 0.707 | 7.94 | 6.66
TRAF3IP2-AS1 | 3 | -0.664 | -1.71 | 2.66
NDUFAF1 | 1 | 0.0156 | 3.08 | 5.03
NDUFAF1 | 2 | 1.06 | 10.5 | 8.5
NDUFAF1 | 3 | -0.263 | 1.12 | 3.61
TTC6 | 1 | -1.11 | -4.86 | 2.88
TTC6 | 2 | -0.89 | -3.29 | 4.14
TTC6 | 3 | 0.886 | 9.2 | 7.96
TTC6 | 4 | 0.631 | 7.4 | 6.53
TTC6 | 5 | -0.658 | -1.66 | 2.53
TTC6 | 6 | 0.362 | 5.51 | 6.41
MED19 | 1 | -0.0941 | 2.31 | 4.41
MED19 | 2 | -0.303 | 0.836 | 3.42
MED19 | 3 | 1.69 | 14.9 | 7.94
CRLF3 | 1 | -1.41 | -6.92 | 1.13
CRLF3 | 2 | 2.01 | 17.1 | 11.5
CRLF3 | 3 | -0.063 | 2.52 | 4.03
MELK | 1 | -0.888 | -3.28 | 4.52
MELK | 2 | -1.16 | -5.18 | 3.67
MELK | 3 | -0.0352 | 2.72 | 4.98
WDR72 | 1 | -0.287 | 0.95 | 3.92
WDR72 | 2 | -0.183 | 1.68 | 3.71
WDR72 | 3 | -0.25 | 1.21 | 3.58
LOC441167 (retired record) | 1 | 0.591 | 7.13 | 6.37
LOC441167 (retired record) | 2 | -0.286 | 0.952 | 3.78
LOC441167 (retired record) | 3 | 1.99 | 17 | 8.88
STC1 | 1 | 3.22 | 25.6 | 14.3
STC1 | 2 | 6.8 (active) | 50.8 | 22
STC1 | 3 | -0.627 | -1.44 | 3.48
